Where a name gives a salt, the structure may show the parent alone. Some of the results follow. Single values of this set are uncertain.
Tested on: Peyronie's disease tunica albuginea primary fibroblasts
Experiment: inhibition of TGF-beta1-induced alpha-SMA expression (myofibroblast transformation), relative to TGF-beta1-only and untreated controls; higher = stronger inhibition of myofibroblast transformation
Conditions: 10 µM; TGF-beta1 10 ng/mL; 72 h

Row | Structure (SMILES) | inhibition of TGF-beta1-induced alpha-SMA expression
1 | O=C(O)c1cn(C2CC2)c2cc(N3CCNCC3)c(F)cc2c1=O [Ciprofloxacin hydrochloride hydrate] | 8.5%
2 | CCOc1nc2cccc(C(=O)OCc3oc(=O)oc3C)c2n1Cc1ccc(-c2ccccc2-c2noc(=O)[nH]2)cc1 [Azilsartan Medoxomil] | 13.2%
3 | C#CCN[C@@H]1CCc2ccccc21 [Rasagiline Mesylate] | 11.2%
4 | C/C(=C\c1csc(C)n1)[C@@H]1C[C@@H]2O[C@]2(C)CCC[C@H](C)[C@H](O)[C@@H](C)C(=O)C(C)(C)[C@@H](O)CC(=O)N1 | 84.9%
5 | CC(C)(OCc1nn(Cc2ccccc2)c2ccccc12)C(=O)O [Bindarit] | 4.15%
6 | COc1cc(C(=O)NCc2ccc(OCCN(C)C)cc2)cc(OC)c1OC [Tribenzagan Hydrochloride] | 26.7%
7 | CCCN1CCCC[C@H]1C(=O)Nc1c(C)cccc1C [Ropivacaine HCl] | 27.6%
8 | CCCN1CCCC[C@H]1C(=O)Nc1c(C)cccc1C [Ropivacaine] | 3.22%
9 | CCN(C(=O)c1c(O)c2c(Cl)cccc2n(C)c1=O)c1ccccc1 [Laquinimod] | 7.45%
10 | CN1CC(=O)N2[C@H](c3ccc4c(c3)OCO4)c3[nH]c4ccccc4c3C[C@@H]2C1=O [Tadalafil] | 15%
11 | CC(C)NCC(O)COc1ccc(CCOCC2CC2)cc1 (stereo unspecified) [Betaxolol] | 3.3%
12 | CC(C)NCC(O)COc1ccc(CCOCC2CC2)cc1 (stereo unspecified) [Betaxolol HCl] | 18.2%
13 | CCc1nc(N)nc(N)c1-c1ccc(Cl)cc1 [Pyrimethamine] | 17.6%
14 | CC(=O)[C@@]1(O)CC[C@H]2[C@@H]3C[C@H](C)C4=CC(=O)C=C[C@]4(C)[C@@]3(F)[C@@H](O)C[C@@]21C [Fluorometholone] | 78.2%
15 | CCN(CC)CCNC(=O)c1cc(Cl)c(N)cc1OC [Metoclopramide HCl] | 13.5%
16 | CCOc1ccc2ccccc2c1C(=O)N[C@@H]1C(=O)N2[C@@H]1SC(C)(C)[C@@H]2C(=O)O [Nafcillin Sodium] | -3.27%
17 | CC1=NN(c2ccccc2)C(=O)C1 [Edaravone] | 19.4%
18 | CCC[C@@H]1C[C@@H](C(=O)N[C@@H]([C@H]2O[C@H](SC)[C@H](O)[C@@H](O)[C@H]2O)[C@H](C)Cl)N(C)C1 [Clindamycin] | -9.76%
19 | CCC[C@@H]1C[C@@H](C(=O)N[C@@H]([C@H]2O[C@H](SC)[C@H](O)[C@@H](O)[C@H]2O)[C@H](C)Cl)N(C)C1 [Clindamycin HCl] | 13.8%
20 | O=C(O)CCNC(=O)c1ccccc1 [Betamipron] | -12.6%
21 | O=C(N[C@H](CO)[C@H](O)c1ccc([N+](=O)[O-])cc1)C(Cl)Cl [Chloramphenicol] | 7.32%

A second format for some results above.
Row	Structure (SMILES)	inhibition of TGF-beta1-induced alpha-SMA expression
9	CCN(C(=O)c1c(O)c2c(Cl)cccc2n(C)c1=O)c1ccccc1 [Laquinimod]	7.45%
10	CN1CC(=O)N2[C@H](c3ccc4c(c3)OCO4)c3[nH]c4ccccc4c3C[C@@H]2C1=O [Tadalafil]	15%
11	CC(C)NCC(O)COc1ccc(CCOCC2CC2)cc1 (stereo unspecified) [Betaxolol]	3.3%
12	CC(C)NCC(O)COc1ccc(CCOCC2CC2)cc1 (stereo unspecified) [Betaxolol HCl]	18.2%
13	CCc1nc(N)nc(N)c1-c1ccc(Cl)cc1 [Pyrimethamine]	17.6%
